Taken from: PubChem BioAssay AID743454 (Peter MacCallum Cancer Centre, 2014)

Purpose: 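Knock-downs lowering viability or raising caspase 3/7 activity in vorinostat-treated resistant cells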 (primary screen)
Cell system: human HCT116-VR colon cancer cells, selected for vorinostat resistance
Knock-down reagent: siRNA pool against human genes, 40 nM siRNA pool
Timing: vorinostat for 24 h, read-out about 72 h after transfection
Treatment: vorinostat at 2.5 µM final
Detection: 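Two measures, CellTiter-Fluor viability and luminescent caspase 3/7 activity, each as fold change against same-plate mock wells, mean of duplicates, then screen-wide robust z-score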
Direction: viability robust z-score: higher = more viable cells than screen typical; caspase robust z-score: higher = more caspase 3/7 activity than screen typical
Active means: 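Hits are knock-downs in viability class RV1/RV2 or caspase class CA1/CA2, excluding ones that killed cells in the no-drug cell-count arm; hits then retested with single siRNAs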
Shown is a random part of about 18,000 reagents. Of all reagents, 450 (2.5%) are marked active. 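Single biological run; no consistent viability z cut-off exists, so the class columns, not z-scores, define the calls.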

| gene symbol | viability hit class | caspase hit class | viability robust z-score | caspase robust z-score | activity call |
| --- | --- | --- | --- | --- | --- |
| HPD | no change | no change | -0.11 | -1.03 | inactive |
| GLB1L2 | no change | no change | -3.17 | 3.71 | inactive |
| SNRNP70 | no change | no change | -2.99 | 1.34 | inactive |
| DECR2 | no change | no change | 0.8 | 1.21 | inactive |
| RND2 | no change | no change | -1.4 | -0.46 | inactive |
| FEZ1 | no change | no change | 0.32 | -0.04 | inactive |
| INTS3 | no change | no change | -0.19 | -0.36 | inactive |
| SIDT2 | no change | no change | 1.07 | 1.64 | inactive |
| JAG1 | no change | no change | -0.39 | 1.01 | inactive |
| OR5D14 | no change | no change | -0.44 | 2.34 | inactive |
| ANGPTL4 | no change | no change | -0.06 | 1.64 | inactive |
| ENTPD5 | no change | no change | -0.77 | -1.09 | inactive |
| ZZEF1 | no change | no change | 1.02 | 1.44 | inactive |
| MAVS | no change | no change | 1.23 | -0.49 | inactive |
| NLGN4X | no change | no change | -1.44 | -0.54 | inactive |
| LMAN2L | no change | no change | 0.04 | -0.78 | inactive |
| RAG2 | no change | no change | 0.22 | -0.31 | inactive |
| TXN2 | no change | no change | 0.14 | -0.51 | inactive |
| PLCXD3 | no change | no change | -0.12 | 1.01 | inactive |
| CHMP2A | no change | no change | -0.89 | 2.29 | inactive |
| FCHSD1 | no change | no change | 0.84 | 3.97 | inactive |
| WNT10B | no change | no change | -0.89 | 2.35 | inactive |
| NFATC3 | no change | no change | 1.49 | -0.64 | inactive |
| TCFL5 | no change | no change | 1.2 | 1.34 | inactive |
| GPX1 | no change | no change | 0.38 | 0.3 | inactive |
| DYRK1A | no change | no change | 0.3 | -0.66 | inactive |
| ZEB2 | no change | no change | -1.07 | 2.53 | inactive |
| VMAC | no change | no change | -1.2 | 2.89 | inactive |
| HAS2 | no change | no change | 0.78 | -0.78 | inactive |
| KCNA2 | no change | no change | -0.04 | 0.56 | inactive |
| POMK | no change | no change | 0.14 | -0.55 | inactive |
| TRIM77 | no change | no change | 0.6 | 0.19 | inactive |
| UTS2 | no change | no change | -0.12 | -0.8 | inactive |
| B3GALT1 | no change | no change | -0.46 | -0.31 | inactive |
| FEM1C | no change | no change | -0.48 | 1.9 | inactive |
| PGAP2 | no change | no change | -0.3 | -1 | inactive |
| STRIP1 | no change | no change | 0.94 | -0.41 | inactive |
| DUX5 | no change | no change | 1.6 | -0.21 | inactive |
| ESRP2 | no change | no change | -0.72 | 0.72 | inactive |
| ZNF570 | no change | no change | -0.05 | -1.2 | inactive |
| ZNF644 | no change | no change | 1.92 | -0.56 | inactive |
| STAG2 | no change | no change | 0.2 | -0.46 | inactive |
| MLKL | no change | no change | 0 | 1.21 | inactive |
| WSCD2 | no change | no change | -0.06 | -0.16 | inactive |
| UTP14C | no change | no change | -0.52 | -0.05 | inactive |
| MITF | no change | no change | 1.17 | -0.42 | inactive |
| GLO1 | no change | no change | 0.06 | -1.16 | inactive |
| LIMA1 | no change | no change | -0.74 | -1.03 | inactive |
| ASPM | no change | no change | 0.16 | 2.66 | inactive |
| CLIP1 | no change | no change | -0.46 | -1.06 | inactive |
| RPS4Y1 | no change | no change | -0.37 | -1.09 | inactive |
| GFM2 | no change | no change | 1.23 | 1.23 | inactive |
| SNRPD2 | no change | no change | -3.92 | 0.6 | inactive |
| IL36R | no change | no change | 0.9 | -0.69 | inactive |
| OAT | no change | no change | -0.01 | -0.06 | inactive |
| HNF4G | no change | no change | 1.22 | -0.24 | inactive |
| ESCO1 | no change | no change | 0.81 | 0.17 | inactive |

Entries above whose target name begins with R or r:
| gene symbol | viability hit class | caspase hit class | viability robust z-score | caspase robust z-score | activity call |
| --- | --- | --- | --- | --- | --- |
| RND2 | no change | no change | -1.4 | -0.46 | inactive |
| RAG2 | no change | no change | 0.22 | -0.31 | inactive |
| RPS4Y1 | no change | no change | -0.37 | -1.09 | inactive |
